Results deposited as PubChem BioAssay AID1259260 (Sanger Institute, 2017)

- Test: 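Kinome knock-down with three anchor drugs to find synergy partners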 (primary screen)
- Cells: human NCI-H716 colorectal cancer cells
- Reagent: siRNA pool against human genes
- Conditions: anchor drugs BYL719 (alpelisib) 1 µM, cetuximab 5 µg/ml or trametinib 10 nM, each at a dose chosen to harm viability only mildly; DMSO vehicle for the knock-down-alone arm
- Detection: 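Mean viability over replicates against non-targeting siRNA, robust z-score without drug, and per-drug synergy comparing combined with single treatments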
- Reading the numbers: viability robust z-score, siRNA alone: higher = more surviving cells; below -3 called essential
- Rule for the call: 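Essential when the robust z-score for knock-down alone falls below -3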
- Calls: active = essential (knock-down alone lowers viability); inactive = no essential effect
The deposit covers 794 reagents; this is a random part of them. 13 of all reagents (1.6%) were called active. 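Calls reflect only knock-down without drug; synergy above 0.15 was grouped apart and does not change the call.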 A number with no mark means an inactive call. Not all columns of the deposit are shown. Not stated in the record: the amount of reagent, the time to read-out.

The opening 2 entries, ahead of the listing:
viability robust z-score, siRNA alone | Target gene
0.602 | JAK3 (Janus kinase 3)
-0.224 | NEK9 (NIMA related kinase 9)

The listing, repeating the preview:
viability robust z-score, siRNA alone | Target gene
0.602 | JAK3 (Janus kinase 3)
-0.224 | NEK9 (NIMA related kinase 9)
0.602 | NME1 (NME/NM23 nucleoside diphosphate kinase 1)
-0.361 | CALM2 (calmodulin 2)
-1.18 | AK4 (adenylate kinase 4)
0.602 | PHKG1 (phosphorylase kinase catalytic subunit gamma 1)
0.602 | MAP2K4 (mitogen-activated protein kinase kinase 4)
-0.0365 | TYRO3 (TYRO3 protein tyrosine kinase)
0.602 | CMPK1 (cytidine/uridine monophosphate kinase 1)
0.602 | PKLR (pyruvate kinase L/R)
0.602 | RPS6KA6 (ribosomal protein S6 kinase A6)
0.602 | DCLK1 (doublecortin like kinase 1)
0.602 | CDK20 (cyclin dependent kinase 20)
0.491 | CSNK1A1L (casein kinase 1 alpha 1 like)
0.602 | TAF1L (TATA-box binding protein associated factor 1 like)
0.602 | RBM10 (RNA binding motif protein 10)
0.602 | CDK5R1 (cyclin dependent kinase 5 regulatory subunit 1)
-0.471 | DNMT3A (DNA methyltransferase 3 alpha)
0.602 | PIP4K2C (phosphatidylinositol-5-phosphate 4-kinase type 2 gamma)
-2.56 | RPS6KA2 (ribosomal protein S6 kinase A2)
0.602 | TGFBR2 (transforming growth factor beta receptor 2)
0.602 | NEK5 (NIMA related kinase 5)
-2.48 | PRKAB2 (protein kinase AMP-activated non-catalytic subunit beta 2)
0.602 | KALRN (kalirin RhoGEF kinase)
-2.43 | IKBKE (inhibitor of nuclear factor kappa B kinase subunit epsilon)
0.602 | PGK2 (phosphoglycerate kinase 2)
0.602 | TSSK4 (testis specific serine kinase 4)
0.0466 | CALM1 (calmodulin 1)
0.602 | SMAD2 (SMAD family member 2)
0.602 | CSNK2A1 (casein kinase 2 alpha 1)
0.602 | LIMK1 (LIM domain kinase 1)
0.602 | IPMK (inositol polyphosphate multikinase)
0.602 | GRK2 (G protein-coupled receptor kinase 2)
0.602 | MAPK8 (mitogen-activated protein kinase 8)
0.602 | KCNH8 (potassium voltage-gated channel subfamily H member 8)
0.602 | ULK1 (unc-51 like autophagy activating kinase 1)
-1.77 | PFKFB2 (6-phosphofructo-2-kinase/fructose-2,6-biphosphatase 2)
-3.42 (active) | HIPK3 (homeodomain interacting protein kinase 3)
0.602 | PAPSS1 (3'-phosphoadenosine 5'-phosphosulfate synthase 1)
-2.14 | MAPKAPK3 (MAPK activated protein kinase 3)
0.602 | ELP1 (elongator acetyltransferase complex subunit 1)
0.15 | SCYL3 (SCY1 like pseudokinase 3)
-0.759 | RPS6KA4 (ribosomal protein S6 kinase A4)
0.602 | CEP290 (centrosomal protein 290)
0.602 | TSKS (testis specific serine kinase substrate)
-1.51 | AURKB (aurora kinase B)
-0.885 | NME2 (NME/NM23 nucleoside diphosphate kinase 2)
-0.0455 | PRKY (protein kinase Y-linked (pseudogene))
-0.146 | AAK1 (AP2 associated kinase 1)
0.602 | TPD52L3 (TPD52 like 3)
